From PubChem BioAssay AID2685 (National Center for Advancing Translational Sciences (NCATS), 2010) come the findings set out here.

Each structure is given as a SMILES string. Some of the results follow. Further columns of the screen follow, without active or inactive calls. Most of these compounds were active or inconclusive in the main read-out, so they are no random draw. The note in brackets gives the kind of curve behind each potency; many fits are weak.

This assay can be described thus: qHTS Assay for Lipid Storage Modulators in Drosophila S3 Cells.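 On cell number change: cells counted by Cell Tracker Red CMTPX staining in the red channel.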 The conditions noted are these: BODIPY lipid droplet fluorescence, 18-24 h; for cell number change: measured here: cell count max response, cells fed with added oleic acid. A digest of the protocol:
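Laser-scanning cytometry quantifies lipid droplet accumulation (500–530 nm total intensity; droplet/cell object ratio) in oleic acid-fed (400 uM added) Drosophila S3 cells treated with a concentration series. 20 uM Triacsin C defined 100% inhibition.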
(In general: Quantitative high-throughput screening tests each substance at several concentrations.)

Setting [1] is: measured here: cell number channel AC50, cells fed with added oleic acid.
Setting [2] is: measured here: lipid fluorescence (Fed channel) AC50, cells fed with added oleic acid.

One may read the AC50 as the concentration at which the activity in the assay is half-maximal. A lower AC50 goes with activity at low concentration. With `Cc1ccc(Sc2c(C=O)c3ccccc3n2C)cc1`, the AC50 by setting is: under setting [1], 0.92 µM [falling, full curve, poor fit]; under setting [2], 0.82 µM [falling, full curve].

`Cc1ccc(C)c(-n2sc3ccc(F)cc3c2=O)c1`: the cell number change is -82.6%. In addition, the AC50 under setting [1] was 5.8 µM [falling, full curve]. Moreover, under setting [2], the AC50 was 20.6 µM [falling, single point].

On to `Cc1cccc(OCC(=O)NCc2ccncc2)c1C`, for which the cell number change was 40.3%. The concentration at half-maximal activity (AC50) under setting [1] was 11.6 µM [rising, single point]. Also, the AC50 under setting [2] is 6.51 µM [rising, single point].

For the compound `CCN(C(=O)CN1C(=O)c2ccc([N+](=O)[O-])cc2C1=O)C1CCS(=O)(=O)C1` (stereo not given), the cell number change was 2.5%.

As to `CN(CCCNC(=O)C1CCN(S(=O)(=O)c2cccc3nsnc23)CC1)Cc1ccccc1`, the AC50 under setting [2] is 18.4 µM [rising, single point].

As for `N=c1n(Cc2ccccc2)c2ccccc2n1CC(O)c1ccccc1` (stereo not given), the cell number change is -39.5%. Under setting [1], the AC50 was 29.1 µM [falling, single point]. Also, under setting [2], the concentration at half-maximal activity (AC50) was 5.17 µM [falling, single point].

As to `O=C(CSc1ccccc1[N+](=O)[O-])NC1CCS(=O)(=O)C1` (stereo not given), the cell number change is -8.98%. Under setting [1], the AC50 was 6.51 µM [rising, single point]. Moreover, the half-maximal activity concentration (AC50) under setting [2] was 5.17 µM [falling, partial curve].

Consider `CCCCNC(=O)Nc1cc(C)on1`, for which the cell number change stood at 3.94%.

As to `O=C(O)CCC(=O)N1CCN(c2ccccn2)CC1`, the cell number change came out at 49.9%.

For `COc1ccc(NC(=O)c2ccc(C)cc2)cc1`, the AC50 under setting [2] was 0.731 µM [rising, full curve].

Consider `CCC1CCCCN1CCNC(=O)C1CCN(S(=O)(=O)c2cccc3nsnc23)CC1` (stereo not given), for which the cell number change was -14.3%. For the same compound, the AC50 under setting [2] is 16.4 µM [rising, partial curve].

In the case of `O=C(O)COc1ccc2oc3ccccc3c2c1`, the cell number change stood at 15%.

Turning to `Cc1cccc(NC(=O)CCNC(=O)c2ccc(Br)cc2)c1`, the cell number change turned out to be 38.9%. Besides, the concentration at half-maximal activity (AC50) under setting [1] was 11.6 µM [rising, partial curve, poor fit]. Under setting [2], the AC50 is 29.1 µM [rising, single point].

As to `CN1CCN(c2ccc(NS(=O)(=O)c3ccc(Cl)cc3)cn2)CC1`, the cell number change is -36.2%. Further, the AC50 under setting [1] was 6.51 µM [falling, single point].

For the compound `COc1ccccc1C(=O)NNC(=S)Nc1ccccc1`, the cell number change was 2.25%.

In the case of `CCC1Oc2ccccc2N(CC(=O)NC2CCCCC2C)C1=O` (stereo not given), the AC50 under setting [2] is 29.1 µM [falling, single point].

As for `Cc1cc(C)c(S(=O)(=O)NCc2cccs2)cc1C`, the cell number change was -8.01%. In addition, under setting [2], the half-maximal activity concentration (AC50) was 23.1 µM [falling, single point].

`Fc1ccc(/C=N/Nc2ccccn2)cc1`: the cell number change is -33.3%. The AC50 under setting [1] was 29.1 µM [falling, single point].

Turning to `Cc1c(NC(=O)c2ccc3nsnc3c2)cccc1[N+](=O)[O-]`, the cell number change came to 16.5%.

As for `CC1CCc2nc(N)c(C#N)c(-c3ccncc3)c2C1` (stereo not given), the cell number change is 30.2%. Further, under setting [1], the AC50 was 16.4 µM [rising, partial curve]. Also, under setting [2], the AC50 was 4.11 µM [rising, partial curve, poor fit].

Take `COc1cc(C(=O)NCc2cccc3ccccc23)ccc1OCc1ccccc1`: the cell number change was 10.3%. Further, the AC50 under setting [2] is 2.06 µM [rising, full curve].

As for `Cc1ccccc1OCC1Cn2c(nc3c2c(=O)[nH]c(=O)n3C)O1` (stereo not given), the AC50 under setting [2] was 29.1 µM [rising, single point].

Turning to `C=CCOc1ccc(C2/C(=C(\O)c3ccc4c(c3)OCCO4)C(=O)C(=O)N2CCCN2CCOCC2)cc1` (stereo not given), the cell number change is -0.306%. In addition, under setting [2], the AC50 is 18.4 µM [rising, single point].

With `CCOc1ccccc1N(CC(=O)Nc1cccnc1)S(=O)(=O)c1ccc(C)cc1`, the cell number change was 14.9%. Further, the AC50 under setting [2] was 14.6 µM [rising, partial curve, poor fit].

`Cc1ccc(-c2nc(CS(=O)(=O)CC(=O)N3CCOCC3)c(C)o2)cc1`: the cell number change came out at 5.89%. For the same compound, under setting [2], the AC50 was 29.1 µM [rising, single point].

Regarding `CC(=O)c1ccc(NS(=O)(=O)c2c(C)cc(C)cc2C)cc1`, the cell number change is -16.3%. Besides, the AC50 under setting [2] is 20.6 µM [falling, single point].

For the compound `CC(=O)c1cccc(NC(=O)COC(=O)CC2CC3CCC2C3)c1` (stereo not given), the cell number change was -29.9%. Besides, the AC50 under setting [2] is 32.6 µM [falling, partial curve, poor fit].

For `Cc1cc(C(F)(F)F)nn1Cc1n[nH]c(=S)n1-c1ccc(Cl)cc1`, the cell number change worked out at 18.7%. Under setting [2], the AC50 was 29.1 µM [falling, single point].

Consider `COCC(C)N1CCC(n2nccc2NC(=O)CCOc2ccccc2)CC1` (stereo not given), for which the cell number change was -5.87%. In addition, the half-maximal activity concentration (AC50) under setting [2] is 0.103 µM [falling, full curve, poor fit].

As for `Cc1noc(C)c1COc1ccc(C(=O)NNC(=O)c2ccccc2F)cc1`, the cell number change was -8.9%. In addition, the half-maximal activity concentration (AC50) under setting [2] is 0.92 µM [rising, full curve, poor fit].

On to `COc1cc(Nc2nc(-c3ccccc3)c3cc(C)ccc3n2)cc(OC)c1OC`, for which the cell number change was -41.1%. For the same compound, under setting [1], the half-maximal activity concentration (AC50) is 18.4 µM [falling, single point].

With `Cc1ccccc1OCC1Cn2c(nc3c2c(=O)n(C)c(=O)n3C)O1` (stereo not given), the cell number change was -17.9%.

On to `Cc1cc(/C=C2\SC(=O)N(C)C2=O)c(C)n1-c1ccc(O)cc1`, for which the cell number change was found to be 1.23%. Moreover, the half-maximal activity concentration (AC50) under setting [2] was 3.66 µM [rising, partial curve, poor fit].

Consider `CC1(C)O[C@@H]2C[C@H]3[C@@H]4CCC5=CC(=O)C=C[C@]5(C)[C@@]4(F)[C@@H](O)C[C@]3(C)[C@]2(C(=O)CO)O1`, for which the cell number change was -9.21%.

On to `C=C(C)CN1C(=O)c2ccccc2C1=O`, for which the cell number change stood at 37.4%. Also, under setting [1], the AC50 was 18.4 µM [rising, partial curve].

Turning to `CC1CC/C(=N/Nc2ccccc2)C(=O)N1` (stereo not given), the cell number change was 7.9%. Further, under setting [2], the AC50 was 0.146 µM [rising, full curve, poor fit].

With `COc1ccc(C2=NOC(C(=O)NCc3ccc(F)cc3)C2)cc1OC` (stereo not given), the cell number change amounted to 126%. Also, the AC50 under setting [1] is 20.6 µM [rising, single point].

Consider `O=c1c(C(c2ccc(O)cc2)c2c(O)nc3n(c2=O)CCCS3)c(O)nc2n1CCCS2`, for which the cell number change is -13.1%. Further, the AC50 under setting [1] was 0.0231 µM [falling, full curve, poor fit]. For the same compound, the AC50 under setting [2] is 0.0058 µM [falling, full curve, poor fit].

With `CCN1CC(CN(C)Cc2nc(-c3ccc(Cl)cc3)no2)CC1=O` (stereo not given), the cell number change turned out to be 6.73%.

On to `COc1ccc(NC(=O)c2cc(-c3ccccn3)nc3c(C)cc(C)cc23)c(C)c1`, for which the cell number change was -5.56%.

Turning to `CCN(Cc1ccccc1)C(c1ccccn1)c1nnnn1C(C)(C)CC` (stereo not given), the cell number change stood at 5.51%. Under setting [2], the half-maximal activity concentration (AC50) is 11.6 µM [rising, partial curve].
